# Assay results: the supplement of paper PMC5949888
# Most values lie at the floor of the assay. Slopes are relative: functional sequences can read slightly below zero.
# Tested on: Saccharomyces cerevisiae PS128 hsf1 delta, HSF1(1-493) fusion
# Test: growth estimate (transactivation domain function in HSF1 fusion, heat-shock survival) (a.u. (slope of normalised read count over time)); higher = stronger growth at 37°C, i.e. more transactivation activity
# Details: library: random library
row,Substance,growth estimate
1,RDNVR,< -0.25
2,EHDTSTFSTLTSIHGMVVNW,< -0.25
3,LGSTWF,< -0.25
4,PSPQRGGLSRSRGPG,< -0.25
5,VRPQVSRTLSQISMQNLNGY,< -0.25
6,VIDDFLQSSGHSKAACV,< -0.25
7,SWQRRMDWPDALDRNGGTE,< -0.25
8,PDYSIEC,< -0.25
9,SGGVRRQDILDK,< -0.25
10,LRSVGTCWRAGTR,< -0.25
11,MNGRVRGRRPLDSCFST,< -0.25
12,PKACLLCFHDCLVV,< -0.25
13,AKPDYVL,< -0.25
14,PDVADLHLGQGLGD,< -0.25
15,GRSKGTTRRLRSAGEVMRSR,< -0.25
16,RATRPTIVPATWLNSIKRDA,< -0.25
17,LTPMSKSLFAQVRFRLRLRV,< -0.25
18,LFGPRPEYTIWAIGPTGPGA,< -0.25
19,SFNRSMH,< -0.25
20,MATVLSGHPAA,< -0.25
21,VGAENRLLSV,< -0.25
22,AVGC,< -0.25
23,GVNIIM,< -0.25

row,Substance,growth estimate
1,ACGGDIHVYRVLHGGCARGP,< -0.25
2,SFSAALELPRLIAHR,< -0.25
3,NNRMEHIAPQTRGHPEDTTA,< -0.25
4,CTWHNVCDALYIGMVPLRNK,-0.243
5,EDDSV,-0.246
6,VLFPPIP,< -0.25
7,GVLFCSGSDLKK,< -0.25
8,TTRPRECSSDWVPVHGPAAA,< -0.25
9,RYTRCLPYSVRGSAS,< -0.25
10,HRQNSRTPRSVSTVMSNMLL,< -0.25
11,PYIIREMQRHRRFLNSAGSR,< -0.25
12,KRFHTASGIL,-0.192
13,VPSDHA,-0.245
14,LVKMPFDGN,< -0.25
15,RGDWRKEILLARRQQTGGDS,< -0.25
16,DGHQRRSASTCGASPGIGAN,< -0.25
17,GVIELCYEVRIQ,< -0.25
18,TVQCCNGESGLQ,< -0.25
19,FLYGPRSTEKSYY,< -0.25
20,LCKTKQ,< -0.25
21,MGHGGGPHIWLRTAVSNIAL,< -0.25
22,LHQYTL,< -0.25
23,IRPQDL,< -0.25

# Three entries picked at random from the list so far, as already listed:
row,Substance,growth estimate
16,DGHQRRSASTCGASPGIGAN,< -0.25
9,RYTRCLPYSVRGSAS,< -0.25
22,LHQYTL,< -0.25

# Next part

row,Substance,growth estimate
1,TEGEAGLD,< -0.25
2,RRFTVRL,< -0.25
3,IVRGPAEKGPYREVNVLVPP,< -0.25
4,PAMQD,-0.246
5,DPRQQVTLYRRSDRTGIGVR,< -0.25
6,TRATGG,< -0.25
7,RRF,< -0.25
8,AVCRVCPTASGSSTEILLV,< -0.25
9,RPSHRKLKSRMRMHAGVIPH,< -0.25
10,AYGNDHLAETDMLGPQAGIA,< -0.25
11,IKGPPRDSRCDCTNSEASGS,-0.228
12,GATLLF,< -0.25
13,TNISLQ,< -0.25
14,QKGGMRMIDGRRYHAKSAQG,< -0.25
15,RRASVTRSSACGVKMIISAR,< -0.25
16,LPPGNANPKGLILRGSLNGT,< -0.25
17,EGSRPGCARIISYRFSLYRM,< -0.25
18,LLGSSRGCAIASPAPCGGPG,< -0.25
19,KRGLVVTSGQFNQ,< -0.25
20,GSGPPFFLSSLMERHLLCLQ,-0.241
21,IYMGASGGVWF,< -0.25
22,FNALTS,< -0.25
23,QKWIVRCERTKGKKGLHGVA,< -0.25

# Single entries from the results shown:
# Under growth estimate, GATLLF is listed with < -0.25
# Under growth estimate, QKWIVRCERTKGKKGLHGVA is listed with < -0.25
# Under growth estimate, LPPGNANPKGLILRGSLNGT is listed with < -0.25
# Under growth estimate, TRATGG is listed with < -0.25

# Additional results:

row,Substance,growth estimate
1,YENYVFPSFTGEASAENLPA,< -0.25
2,DWASSGT,< -0.25
3,YAG,-0.0464
4,TTAVKAVRP,< -0.25
5,TFKLLDFTCHRYHAILSRG,< -0.25
6,KSDCRRNAVLVCDCHTQFGY,< -0.25
7,GSLC,< -0.25
8,CTISERYGWRSDVIRELHPC,< -0.25
9,TRPS,< -0.25
10,GAKLGTN,< -0.25
11,FGLGNTISP,< -0.25
12,SSTCLGVG,< -0.25
13,LQVGLDALSRGSYPARNVCC,< -0.25
14,PRTLLIALLPDAPRQLMRRL,< -0.25
15,QLRERLHIRSRI,< -0.25
16,SDFLQRHVDRAGSLYACWVE,< -0.25
17,DGLLMDLVASNPALSASIAC,< -0.25
18,CGYQ,< -0.25
19,AVMKIRGKLVFHPWGMHHRV,< -0.25
20,EPYA,< -0.25
21,GLEASKGKMGPTDCSVR,< -0.25
22,KLWSSLIGIR,< -0.25
23,RNAISSCSPAPIRQHGPCWY,-0.25

row,Substance,growth estimate
1,SRSLELRTVDQSVYCWLRCR,< -0.25
2,RTSPDRDLSCRELCRELRYR,< -0.25
3,EARRGKMGSNTPHGTIGSPN,< -0.25
4,KCPS,< -0.25
5,NCGEITFP,< -0.25
6,YSAGAPNGYERWPDADTLAE,< -0.25
7,SQESWGT,< -0.25
8,AFQNAQ,< -0.25
9,LPPVMIADVGSCGKGYRET,< -0.25
10,QITGLHTEGTAWRLEVEFGR,< -0.25
11,LSSSHSQSGRTKAKTTNAAA,< -0.25
12,MCGGRIKPESICGPLRALLV,< -0.25
13,VHGPAMVNYPAASSCTRAGR,< -0.25
14,TQAESRYYEGTSQERGARRT,< -0.25
15,QVLLST,< -0.25
16,HRDPSKLAGLLVCGAYECVR,< -0.25
17,ILTSLFLDLGRVIRVRI,< -0.25
18,CLHSS,< -0.25
19,PLESG,< -0.25
20,PVSTCVIEQAYHLTAPRETQ,-0.243
21,TLFYGSAIQPAEVSFPPIPL,< -0.25
22,QVCIGFNHGLYQRCIMLEDL,< -0.25
23,VRVVPAASKIYKMLAYSRAT,< -0.25

row,Substance,growth estimate
1,ARITIRASLNLFYPKSSTDR,< -0.25
2,IAIRHYKLTIQGL,-0.246
3,EEFGVQEQGVELRSSKSSTG,< -0.25
4,NVLRWL,< -0.25
5,HPIWLSHGRQEGVTVR,< -0.25
6,TLSDSRYGSEDSLLRYRDHP,< -0.25
7,IRRDLPPGPGYPSLRGAIST,< -0.25
8,TDTLRGET,< -0.25
9,CPVCSVTR,< -0.25
10,VLASQDDIVGPRSARPVAIS,< -0.25
11,RGLNSQIALLALRVPFLSVV,< -0.25
12,KSLGGCLIPNWPDEQGGIQR,< -0.25
13,SNIL,< -0.25
14,NASVKAEHGDV,< -0.25
15,SSSQKLPCYEQWPLFRSSPL,-0.243
16,LSGVYL,< -0.25
17,LNAIRR,< -0.25
18,PWTPQSYLRPMNKDVRSRSQ,< -0.25
19,GLIPCRPTCRESNSAGQAAP,< -0.25
20,RGVIIVWHV,< -0.25
21,NGWQ,-0.246
22,KESKPIAGGVYLHVCGMIRW,< -0.25
23,ERYLHDLHRD,< -0.25

row,Substance,growth estimate
1,FRSSNPEFSLM,-0.226
2,DAMEGQIGFRG,< -0.25
3,PYLAE,< -0.25
4,WLRILTGRK,< -0.25
5,EPGYDLIG,< -0.25
6,LVGRVVKRFWQIF,< -0.25
7,TRIHSSDSHIRVTVSASFDT,< -0.25
8,RIADEIFYGSKHRIG,< -0.25
9,ILMANVNHSVYPLRYATL,< -0.25
10,TGSPTTSRSSVIGHTVQGMP,< -0.25
11,LLYNLFIGDPVGRGTCCQ,0.216
12,IVILQVRGA,< -0.25
13,GGTPDVPDSMTGRLPTV,< -0.25
14,VYWV,< -0.25
15,DCCTARVAVGYLANSETAL,< -0.25
16,VPMGGV,< -0.25
17,LVLSRYAVKPRASA,< -0.25
18,SATMVRLT,< -0.25
19,CADCIAPLQKEHS,< -0.25
20,VEWGQPAVLPDYSAA,< -0.25
21,FNTTGLAPERHTRTIISHQG,< -0.25
22,RGSGPR,< -0.25
23,GVKFASQDIL,< -0.25
